Test: general procedure: Fmoc solid-phase peptide synthesis; Rink amide resin; HBTU/diisopropyl ethyl amine; DCC, HOBt
Conditions: whole synthesis, scale 0.1 mmol

## 1-(Toluene-4-sulfonyl)-aziridine-2-carboxylic acid-Gly-Val-βAla-Phe-Gly-amide
  isolated yield: 7-23%

Reference: patent publication US20090022664A1 (priority 2007, published 2009)
